Data as given in PubChem BioAssay AID504793 (Drosophila RNAi Screening Center, 2011).
The screen tested about 23,000 reagents; below is an unselected part of those that have a named target and a result. In the full data, 62 (0.27%) got an active call. 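Calls come from follow-up tests whose scores are not deposited, so confirmed genes may have low counts here; counts are not normalised per plate.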 Raw values vary from plate to plate and are shown uncorrected. The numbers tell different reagents against one gene apart. Names joined by + are all predicted targets of the reagent.

Aim: 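Genes required for cells to halt at G2/M after double-strand DNA breaks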 (primary screen)
Cell system: Drosophila S2R+ cells
Reagents: long dsRNA against Drosophila genes, about 0.25 µg dsRNA per well
Duration: 4 days of dsRNA, then 4 hours of drug before read-out
Conditions: doxorubicin 0.5 µM for 4 hours to cause double-strand breaks, in cells also given a low, harmless dose of dsRNA against nbs to sensitise the assay
Read-out: 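Mitotic index as the number of phospho-histone H3-positive cells in each well following doxorubicin, given as raw counts without normalisation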
Scale: mitotic cells: higher = more cells in mitosis, weaker G2 arrest
Active means: 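a call needs confirmation in secondary tests, with other dsRNAs and a check of mitotic timing without damage, not just a high primary count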
Meaning of the calls: active = confirmed in follow-up tests; inactive = not confirmed

The opening 2 records, to show the layout:
Tie (Tie-like receptor tyrosine kinase) #1 — mitotic cells, replicate 1 = 10; activity call = inactive
Tie (Tie-like receptor tyrosine kinase) #2 — mitotic cells, replicate 1 = 4; activity call = inactive

Main list, repeating the preview:
Tie (Tie-like receptor tyrosine kinase) #1 — mitotic cells, replicate 1 = 10; activity call = inactive
Tie (Tie-like receptor tyrosine kinase) #2 — mitotic cells, replicate 1 = 4; activity call = inactive
CG12496 #1 — mitotic cells, replicate 1 = 8; activity call = inactive
CG12496 #2 — mitotic cells, replicate 1 = 5; activity call = inactive
Cp7Fb (Chorion protein b at 7F) — mitotic cells, replicate 1 = 14; activity call = inactive
CG12516 — mitotic cells, replicate 1 = 10; activity call = inactive
Rbbp5 + CG6434 (retired record) — mitotic cells, replicate 1 = 3; activity call = inactive
Dis3 — mitotic cells, replicate 1 = 14; activity call = inactive
CG13994 — mitotic cells, replicate 1 = 1; activity call = inactive
CSN5 (COP9 signalosome subunit 5) #1 — mitotic cells, replicate 1 = 16; activity call = inactive
CSN5 (COP9 signalosome subunit 5) #2 — mitotic cells, replicate 1 = 7; activity call = inactive
CSN5 (COP9 signalosome subunit 5) #3 — mitotic cells, replicate 1 = 13; activity call = inactive
tws (twins) #1 — mitotic cells, replicate 1 = 14; activity call = inactive
tws (twins) #2 — mitotic cells, replicate 1 = 54; activity call = inactive
tws (twins) #3 — mitotic cells, replicate 1 = 27; activity call = inactive
Tgi (Tondu-domain-containing Growth Inhibitor) #1 — mitotic cells, replicate 1 = 6; activity call = inactive
Tgi (Tondu-domain-containing Growth Inhibitor) #2 — activity call = inactive
Tgi (Tondu-domain-containing Growth Inhibitor) #3 — mitotic cells, replicate 1 = 4; activity call = inactive
NT1 (Neurotrophin 1) #1 — mitotic cells, replicate 1 = 1; activity call = inactive
NT1 (Neurotrophin 1) #2 — mitotic cells, replicate 1 = 18; activity call = inactive
CG14434 — mitotic cells, replicate 1 = 7; activity call = inactive
PolD1 (DNA polymerase delta subunit 1) #1 — mitotic cells, replicate 1 = 5; activity call = inactive
PolD1 (DNA polymerase delta subunit 1) #2 — mitotic cells, replicate 1 = 3; activity call = inactive
CG8993 #1 — mitotic cells, replicate 1 = 5; activity call = inactive
CG8993 #2 — mitotic cells, replicate 1 = 3; activity call = inactive
CngB (Cyclic nucleotide-gated ion channel subunit B) — mitotic cells, replicate 1 = 6; activity call = inactive
CG9519 #1 — mitotic cells, replicate 1 = 3; activity call = inactive
CG9519 #2 — mitotic cells, replicate 1 = 8; activity call = inactive
CG14780 — mitotic cells, replicate 1 = 14; activity call = inactive
CG5214 #1 — mitotic cells, replicate 1 = 5; activity call = inactive
CG5214 #2 — mitotic cells, replicate 1 = 19; activity call = inactive
CG5214 #3 — mitotic cells, replicate 1 = 2; activity call = inactive
CG13794 #1 — mitotic cells, replicate 1 = 3; activity call = inactive
CG13794 #2 — mitotic cells, replicate 1 = 8; activity call = inactive
